From article PMC5363614, “Secreted protein acidic and rich in cysteine (SPARC) induces lipotoxicity in neuroblastoma by regulating transport of albumin complexed with fatty acids” (Oncotarget, 2016)
No constants are given. Whether binding was seen depends on the method and setting. Some entries that bind do so weakly or less than the wild type. Tags and fused reporters may be left off the sequences shown.

Protein sequences, listed by entry. Tags and fused reporters are not part of them. Residues count along the entry.
UniProt P02768, residues 25-609: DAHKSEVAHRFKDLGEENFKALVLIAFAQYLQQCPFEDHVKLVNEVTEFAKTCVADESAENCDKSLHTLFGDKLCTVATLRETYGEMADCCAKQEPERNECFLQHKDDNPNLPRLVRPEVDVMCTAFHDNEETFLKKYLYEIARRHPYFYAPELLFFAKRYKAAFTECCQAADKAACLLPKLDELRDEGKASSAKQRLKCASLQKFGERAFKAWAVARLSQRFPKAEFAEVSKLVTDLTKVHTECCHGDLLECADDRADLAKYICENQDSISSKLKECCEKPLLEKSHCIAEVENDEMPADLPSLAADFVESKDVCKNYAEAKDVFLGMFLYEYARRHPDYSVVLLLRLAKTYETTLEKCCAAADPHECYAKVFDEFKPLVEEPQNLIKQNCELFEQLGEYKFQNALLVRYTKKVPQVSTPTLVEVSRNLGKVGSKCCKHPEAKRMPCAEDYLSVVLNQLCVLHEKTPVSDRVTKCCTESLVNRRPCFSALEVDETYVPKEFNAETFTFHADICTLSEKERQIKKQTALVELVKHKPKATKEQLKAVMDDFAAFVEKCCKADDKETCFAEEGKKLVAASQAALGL

Biological target: T1, Recombinant human SPARC (secreted protein acidic and rich in cysteine), histidine-tagged (human) (UniProt P09486)
T1 sequence: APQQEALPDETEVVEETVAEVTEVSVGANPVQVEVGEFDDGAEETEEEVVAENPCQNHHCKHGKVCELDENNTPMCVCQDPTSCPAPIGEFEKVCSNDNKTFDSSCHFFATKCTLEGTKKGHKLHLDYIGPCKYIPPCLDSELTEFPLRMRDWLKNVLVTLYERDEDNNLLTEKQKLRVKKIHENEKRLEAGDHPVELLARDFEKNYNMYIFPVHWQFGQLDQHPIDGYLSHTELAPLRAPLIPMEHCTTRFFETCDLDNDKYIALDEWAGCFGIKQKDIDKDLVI
Experiment: SPR; data not shown; SPARC immobilised on Sensor NTA chip; human serum albumin as analyte, room temperature, 20 ul/minute; both purified

Human serum albumin (from UniProt P02768 25-609)
binding: binds
